This is one part of the list.
Legend:
Assay in all cases: log2 fold change, soluble protein after heating vs DMSO (PISA); higher = thermal stabilisation; K562 lysate, 10 uM; active = over 0.2 and 3.5 SD of the protein, either way, in both replicates (recomputed)
lapatinib = compound: CS(=O)(=O)CCNCc1ccc(-c2ccc3ncnc(Nc4ccc(OCc5cccc(F)c5)c(Cl)c4)c3c2)o1 [lapatinib]
Method in brief: (§1)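 Log-two fold change in thermal stability relative to solvent controls is reported from duplicates. For each sample, crude K562 extract from dounce-homogenised pellets in PBS pH 7.4 with 1 mM MgCl2, at 1 mg/mL protein, was treated with 10 μM compound for 30 min. Aliquots heated for 3 min across 48°C-58°C were pooled, brought to 0.5% NP-40 at 4°C and cleared at 21,000xg for 90 min. The supernatant was quantified by TMTpro 16plex LC-MS/MS with channel sums equalised.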

Protein sequences, listed by entry. Tags and fused reporters are not part of them. Lines headed by an entry give the natural chain unless they say otherwise; changes in a name come on top.
UniProt Q9BUE6: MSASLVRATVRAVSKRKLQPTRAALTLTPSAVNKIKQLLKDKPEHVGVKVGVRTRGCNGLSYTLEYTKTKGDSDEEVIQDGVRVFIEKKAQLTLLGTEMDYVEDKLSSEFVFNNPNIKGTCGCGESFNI
UniProt Q9NV88, whole entry, looked up: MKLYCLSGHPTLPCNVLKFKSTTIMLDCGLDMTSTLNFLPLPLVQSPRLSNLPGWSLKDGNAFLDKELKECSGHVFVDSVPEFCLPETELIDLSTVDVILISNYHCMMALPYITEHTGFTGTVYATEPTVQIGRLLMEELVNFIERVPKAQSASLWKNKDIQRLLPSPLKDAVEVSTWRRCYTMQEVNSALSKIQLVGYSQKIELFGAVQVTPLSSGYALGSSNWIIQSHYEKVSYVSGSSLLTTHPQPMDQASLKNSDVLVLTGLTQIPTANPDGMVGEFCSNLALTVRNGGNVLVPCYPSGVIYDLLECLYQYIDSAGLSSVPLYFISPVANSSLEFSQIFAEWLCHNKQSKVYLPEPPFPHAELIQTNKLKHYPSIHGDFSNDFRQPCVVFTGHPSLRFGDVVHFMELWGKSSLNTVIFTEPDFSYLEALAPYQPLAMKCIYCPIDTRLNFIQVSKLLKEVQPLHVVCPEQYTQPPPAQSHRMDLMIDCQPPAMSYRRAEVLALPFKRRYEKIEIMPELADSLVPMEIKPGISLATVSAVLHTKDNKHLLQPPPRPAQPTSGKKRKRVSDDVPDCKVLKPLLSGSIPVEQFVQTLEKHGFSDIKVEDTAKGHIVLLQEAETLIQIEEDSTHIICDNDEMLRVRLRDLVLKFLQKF
UniProt Q9Y6Y0: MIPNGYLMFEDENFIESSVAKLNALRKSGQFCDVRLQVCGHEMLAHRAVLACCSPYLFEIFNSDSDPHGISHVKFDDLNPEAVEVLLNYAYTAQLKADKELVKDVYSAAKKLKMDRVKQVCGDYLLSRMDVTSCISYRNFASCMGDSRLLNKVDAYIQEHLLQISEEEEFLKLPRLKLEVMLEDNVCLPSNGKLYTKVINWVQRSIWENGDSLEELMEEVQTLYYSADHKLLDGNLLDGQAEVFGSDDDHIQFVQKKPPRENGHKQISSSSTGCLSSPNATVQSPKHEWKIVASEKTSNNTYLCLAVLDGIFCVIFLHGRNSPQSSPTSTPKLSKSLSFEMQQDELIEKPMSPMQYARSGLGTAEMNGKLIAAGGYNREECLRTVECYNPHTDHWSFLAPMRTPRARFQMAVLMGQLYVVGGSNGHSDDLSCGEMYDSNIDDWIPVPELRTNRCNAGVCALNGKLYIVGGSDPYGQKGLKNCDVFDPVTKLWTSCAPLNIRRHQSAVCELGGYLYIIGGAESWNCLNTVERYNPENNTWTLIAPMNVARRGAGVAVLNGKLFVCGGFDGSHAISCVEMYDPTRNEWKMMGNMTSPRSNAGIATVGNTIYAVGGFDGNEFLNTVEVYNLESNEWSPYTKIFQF
UniProt P05161, whole entry, looked up: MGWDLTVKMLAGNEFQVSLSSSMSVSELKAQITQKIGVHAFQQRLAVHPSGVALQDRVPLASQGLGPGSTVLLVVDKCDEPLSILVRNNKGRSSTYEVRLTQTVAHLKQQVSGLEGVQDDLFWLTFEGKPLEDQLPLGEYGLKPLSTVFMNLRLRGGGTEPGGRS
UniProt Q96SY0, whole entry, looked up: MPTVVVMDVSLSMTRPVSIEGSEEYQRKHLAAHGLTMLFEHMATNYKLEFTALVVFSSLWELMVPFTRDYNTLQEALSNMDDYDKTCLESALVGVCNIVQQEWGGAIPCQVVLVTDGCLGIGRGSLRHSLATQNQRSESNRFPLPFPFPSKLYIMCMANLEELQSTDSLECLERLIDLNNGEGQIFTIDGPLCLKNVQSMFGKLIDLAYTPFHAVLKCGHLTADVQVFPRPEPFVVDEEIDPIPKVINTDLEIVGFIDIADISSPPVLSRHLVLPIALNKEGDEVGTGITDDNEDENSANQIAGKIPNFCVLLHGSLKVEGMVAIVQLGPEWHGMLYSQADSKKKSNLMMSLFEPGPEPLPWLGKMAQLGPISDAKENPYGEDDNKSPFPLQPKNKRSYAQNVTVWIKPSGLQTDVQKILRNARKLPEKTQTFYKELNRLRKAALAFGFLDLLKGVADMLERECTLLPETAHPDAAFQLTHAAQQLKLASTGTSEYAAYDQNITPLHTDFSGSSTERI
UniProt Q8IY47: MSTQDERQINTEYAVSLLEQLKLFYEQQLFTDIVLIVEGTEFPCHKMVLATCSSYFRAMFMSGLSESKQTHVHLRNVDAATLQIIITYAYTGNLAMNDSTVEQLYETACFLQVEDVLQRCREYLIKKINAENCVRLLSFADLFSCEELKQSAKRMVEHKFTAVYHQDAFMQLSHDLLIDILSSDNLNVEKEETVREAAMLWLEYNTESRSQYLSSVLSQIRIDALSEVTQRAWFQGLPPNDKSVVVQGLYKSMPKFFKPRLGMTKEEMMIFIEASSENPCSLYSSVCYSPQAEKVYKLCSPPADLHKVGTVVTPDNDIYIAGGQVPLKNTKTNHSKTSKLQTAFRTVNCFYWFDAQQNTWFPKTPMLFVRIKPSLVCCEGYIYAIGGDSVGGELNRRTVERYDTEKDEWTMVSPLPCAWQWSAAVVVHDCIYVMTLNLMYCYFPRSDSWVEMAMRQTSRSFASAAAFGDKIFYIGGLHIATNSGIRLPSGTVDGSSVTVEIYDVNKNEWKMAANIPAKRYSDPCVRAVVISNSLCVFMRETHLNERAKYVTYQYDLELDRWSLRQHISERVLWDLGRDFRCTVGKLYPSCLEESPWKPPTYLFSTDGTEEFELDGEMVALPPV
UniProt P05556, whole entry, looked up: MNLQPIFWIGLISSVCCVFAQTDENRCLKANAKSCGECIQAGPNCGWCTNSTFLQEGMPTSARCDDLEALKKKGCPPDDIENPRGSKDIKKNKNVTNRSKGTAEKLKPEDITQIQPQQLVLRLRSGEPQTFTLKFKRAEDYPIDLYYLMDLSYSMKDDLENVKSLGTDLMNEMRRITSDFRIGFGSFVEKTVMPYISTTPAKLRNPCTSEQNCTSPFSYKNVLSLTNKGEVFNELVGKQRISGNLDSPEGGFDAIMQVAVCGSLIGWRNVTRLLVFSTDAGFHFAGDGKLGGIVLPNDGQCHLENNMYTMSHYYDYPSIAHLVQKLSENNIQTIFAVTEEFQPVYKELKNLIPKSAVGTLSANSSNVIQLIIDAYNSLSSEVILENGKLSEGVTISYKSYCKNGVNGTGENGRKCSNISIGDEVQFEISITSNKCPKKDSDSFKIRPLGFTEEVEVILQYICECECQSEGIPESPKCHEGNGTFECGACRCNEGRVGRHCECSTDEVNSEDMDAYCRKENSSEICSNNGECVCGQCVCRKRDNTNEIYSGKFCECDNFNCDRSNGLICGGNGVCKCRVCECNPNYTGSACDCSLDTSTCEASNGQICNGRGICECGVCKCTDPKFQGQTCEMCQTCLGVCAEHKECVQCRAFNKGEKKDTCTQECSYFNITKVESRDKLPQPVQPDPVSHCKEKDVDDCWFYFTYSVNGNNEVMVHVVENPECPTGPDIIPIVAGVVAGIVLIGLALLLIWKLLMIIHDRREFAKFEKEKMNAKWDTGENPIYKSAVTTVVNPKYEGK
UniProt Q68E01, whole entry, looked up: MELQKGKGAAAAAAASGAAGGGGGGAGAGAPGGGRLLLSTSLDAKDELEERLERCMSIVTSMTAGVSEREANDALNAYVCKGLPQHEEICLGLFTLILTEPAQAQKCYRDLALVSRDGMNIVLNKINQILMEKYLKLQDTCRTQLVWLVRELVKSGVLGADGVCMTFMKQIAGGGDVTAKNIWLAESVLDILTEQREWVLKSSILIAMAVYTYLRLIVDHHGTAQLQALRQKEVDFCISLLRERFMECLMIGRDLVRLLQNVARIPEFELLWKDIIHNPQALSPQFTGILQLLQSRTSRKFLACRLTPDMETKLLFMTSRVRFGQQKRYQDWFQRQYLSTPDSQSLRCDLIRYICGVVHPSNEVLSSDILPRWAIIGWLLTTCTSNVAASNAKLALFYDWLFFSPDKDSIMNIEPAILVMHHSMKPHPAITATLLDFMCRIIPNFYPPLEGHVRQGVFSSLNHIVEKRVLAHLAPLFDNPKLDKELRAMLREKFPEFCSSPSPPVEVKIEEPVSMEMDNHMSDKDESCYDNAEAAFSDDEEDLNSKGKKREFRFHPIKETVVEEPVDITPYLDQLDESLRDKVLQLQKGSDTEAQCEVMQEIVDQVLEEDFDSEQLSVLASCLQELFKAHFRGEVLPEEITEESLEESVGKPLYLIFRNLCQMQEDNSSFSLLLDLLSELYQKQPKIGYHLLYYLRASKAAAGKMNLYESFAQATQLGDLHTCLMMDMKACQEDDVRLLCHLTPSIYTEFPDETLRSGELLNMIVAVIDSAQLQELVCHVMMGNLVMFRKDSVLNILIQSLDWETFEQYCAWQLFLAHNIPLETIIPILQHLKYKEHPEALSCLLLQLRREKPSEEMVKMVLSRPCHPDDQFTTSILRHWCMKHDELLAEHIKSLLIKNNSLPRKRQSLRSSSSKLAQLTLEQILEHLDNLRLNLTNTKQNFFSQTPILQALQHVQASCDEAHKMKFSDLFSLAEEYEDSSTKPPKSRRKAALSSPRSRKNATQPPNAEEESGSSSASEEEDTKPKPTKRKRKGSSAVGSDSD
UniProt Q96J02: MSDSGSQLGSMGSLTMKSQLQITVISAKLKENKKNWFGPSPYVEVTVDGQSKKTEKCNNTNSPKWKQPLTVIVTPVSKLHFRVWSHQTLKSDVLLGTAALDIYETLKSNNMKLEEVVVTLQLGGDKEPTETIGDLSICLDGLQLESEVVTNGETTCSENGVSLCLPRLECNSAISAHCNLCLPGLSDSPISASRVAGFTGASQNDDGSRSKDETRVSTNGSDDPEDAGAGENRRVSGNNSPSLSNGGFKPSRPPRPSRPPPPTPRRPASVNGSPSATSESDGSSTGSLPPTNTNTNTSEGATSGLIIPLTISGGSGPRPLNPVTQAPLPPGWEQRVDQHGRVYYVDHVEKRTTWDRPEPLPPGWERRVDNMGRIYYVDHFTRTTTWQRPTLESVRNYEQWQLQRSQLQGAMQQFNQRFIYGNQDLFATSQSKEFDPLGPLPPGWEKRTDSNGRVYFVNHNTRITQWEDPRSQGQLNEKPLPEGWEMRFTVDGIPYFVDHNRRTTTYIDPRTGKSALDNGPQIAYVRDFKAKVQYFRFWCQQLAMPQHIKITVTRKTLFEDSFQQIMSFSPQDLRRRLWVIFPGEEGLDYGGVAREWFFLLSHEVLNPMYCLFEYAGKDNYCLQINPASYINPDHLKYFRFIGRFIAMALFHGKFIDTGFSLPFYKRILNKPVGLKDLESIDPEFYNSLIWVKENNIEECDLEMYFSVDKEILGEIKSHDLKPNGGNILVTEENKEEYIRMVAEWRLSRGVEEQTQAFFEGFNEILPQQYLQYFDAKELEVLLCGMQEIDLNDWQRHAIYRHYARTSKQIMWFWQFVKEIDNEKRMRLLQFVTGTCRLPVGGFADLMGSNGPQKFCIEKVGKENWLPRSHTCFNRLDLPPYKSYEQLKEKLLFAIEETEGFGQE
UniProt Q9UI26: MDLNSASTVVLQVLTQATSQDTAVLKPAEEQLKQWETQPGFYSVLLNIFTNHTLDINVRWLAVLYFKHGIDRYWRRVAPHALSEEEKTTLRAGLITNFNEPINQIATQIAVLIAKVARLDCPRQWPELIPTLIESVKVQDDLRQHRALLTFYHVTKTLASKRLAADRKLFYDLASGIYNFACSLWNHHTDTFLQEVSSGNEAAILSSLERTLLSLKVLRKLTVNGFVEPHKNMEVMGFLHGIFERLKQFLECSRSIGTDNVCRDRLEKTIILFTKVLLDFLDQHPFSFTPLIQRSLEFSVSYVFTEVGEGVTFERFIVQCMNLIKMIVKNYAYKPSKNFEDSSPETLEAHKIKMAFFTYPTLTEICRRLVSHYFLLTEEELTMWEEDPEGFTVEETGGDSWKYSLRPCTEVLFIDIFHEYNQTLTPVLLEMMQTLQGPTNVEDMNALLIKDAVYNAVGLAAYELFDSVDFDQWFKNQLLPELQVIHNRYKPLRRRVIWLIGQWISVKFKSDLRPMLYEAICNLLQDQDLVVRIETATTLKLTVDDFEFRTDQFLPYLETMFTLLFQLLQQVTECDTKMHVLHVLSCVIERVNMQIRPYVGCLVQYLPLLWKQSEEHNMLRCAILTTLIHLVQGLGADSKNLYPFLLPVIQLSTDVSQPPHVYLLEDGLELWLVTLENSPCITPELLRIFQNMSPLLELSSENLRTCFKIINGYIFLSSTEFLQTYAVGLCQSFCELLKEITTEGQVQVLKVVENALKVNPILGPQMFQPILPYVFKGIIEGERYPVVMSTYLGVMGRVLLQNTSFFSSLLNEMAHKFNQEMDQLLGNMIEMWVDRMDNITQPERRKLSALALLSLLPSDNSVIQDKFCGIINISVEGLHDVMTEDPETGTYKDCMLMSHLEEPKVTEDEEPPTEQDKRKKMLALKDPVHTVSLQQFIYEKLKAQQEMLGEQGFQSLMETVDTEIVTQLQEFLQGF

pictilisib = compound: CS(=O)(=O)N1CCN(Cc2cc3nc(-c4cccc5[nH]ncc45)nc(N4CCOCC4)c3s2)CC1 [pictilisib]
Method in brief: as §1

crizotinib = compound: C[C@@H](Oc1cc(-c2cnn(C3CCNCC3)c2)cnc1N)c1c(Cl)ccc(F)c1Cl [crizotinib]
Method in brief: as §1

[1] = compound: C[C@H](C1=CC=C(C=C1)C(=O)NC2=C3C=CNC3=NC=C2)N
Method in brief: as §1

duvelisib = compound: C[C@H](Nc1ncnc2nc[nH]c12)c1cc2cccc(Cl)c2c(=O)n1-c1ccccc1 [duvelisib]
Method in brief: as §1

gandotinib = compound: Cc1cc(Nc2cc(CN3CCOCC3)c3nc(C)c(Cc4ccc(Cl)cc4F)n3n2)n[nH]1 [gandotinib]
Method in brief: as §1

tozasertib = compound: Cc1cc(Nc2cc(N3CCN(C)CC3)nc(Sc3ccc(NC(=O)C4CC4)cc3)n2)n[nH]1 [tozasertib]
Method in brief: as §1

doramapimod = compound: Cc1ccc(-n2nc(C(C)(C)C)cc2NC(=O)Nc2ccc(OCCN3CCOCC3)c3ccccc23)cc1 [doramapimod]
Method in brief: as §1

bafetinib = compound: Cc1ccc(NC(=O)c2ccc(CN3CC[C@H](N(C)C)C3)c(C(F)(F)F)c2)cc1Nc1nccc(-c2cncnc2)n1 [bafetinib]
Method in brief: as §1

[2] = compound: Cc1cccc(CC(=O)N2CCc3c2ccc(-c2cn(C)c4ncnc(N)c24)c3F)n1
Method in brief: as §1

nilotinib = compound: Cc1cn(-c2cc(NC(=O)c3ccc(C)c(Nc4nccc(-c5cccnc5)n4)c3)cc(C(F)(F)F)c2)cn1 [nilotinib]
Method in brief: as §1

[3] = compound: Cc1nc(Nc2n[nH]c3c2CN(C(=O)N[C@H](CN(C)C)c2ccccc2)C3(C)C)c2sccc2n1
Method in brief: as §1

dasatinib = compound: Cc1nc(Nc2ncc(C(=O)Nc3c(C)cccc3Cl)s2)cc(N2CCN(CCO)CC2)n1 [dasatinib]
Method in brief: as §1

[4] = compound: Cc1ncc(-c2ccnc(Nc3ccc(S(C)(=O)=O)cc3)n2)n1C(C)C
Method in brief: as §1

[5] = compound: Cn1cc(-c2ccc3c(c2)CCN3C(=O)Cc2cccc(C(F)(F)F)c2)c2c(N)ncnc21
Method in brief: as §1

quisinostat = compound: Cn1cc(CNCC2CCN(c3ncc(C(=O)NO)cn3)CC2)c2ccccc21 [quisinostat]
Method in brief: as §1

tipifarnib = compound: Cn1cncc1[C@@](N)(c1ccc(Cl)cc1)c1ccc2c(c1)c(-c1cccc(Cl)c1)cc(=O)n2C [tipifarnib]
Method in brief: as §1

[6] = compound: NC(=O)Nc1cc(-c2cccc(F)c2)sc1C(=O)N[C@H]1CCCNC1
Method in brief: as §1

[7] = compound: NC(=O)c1cnc(N[C@@H]2CCCC[C@@H]2N)nc1Nc1cccc(-n2nccn2)c1
Method in brief: as §1

[8] = compound: NC1(c2ccc(-c3nc4ccn5c(=O)[nH]nc5c4cc3-c3ccccc3)cc2)CCC1
Method in brief: as §1

Target	log2 fold change (lapatinib)	log2 fold change (pictilisib)	log2 fold change (crizotinib)	log2 fold change [1]	log2 fold change (duvelisib)	log2 fold change (gandotinib)	log2 fold change (tozasertib)	log2 fold change (doramapimod)	log2 fold change (bafetinib)	log2 fold change [2]	log2 fold change (nilotinib)	log2 fold change [3]	log2 fold change (dasatinib)	log2 fold change [4]	log2 fold change [5]	log2 fold change (quisinostat)	log2 fold change (tipifarnib)	log2 fold change [6]	log2 fold change [7]	log2 fold change [8]
ISCA1 isoform 2 (UniProt Q9BUE6)	inactive: 0.054	inactive: -0.08	inactive: -0.011	active: 0.343	inactive: 0.012	inactive: -0.132	inactive: -0.004	inactive: 0.011	inactive: 0.067	inactive: -0.223	inactive: 0.043	inactive: 0.251	inactive: 0	inactive: 0.111	inactive: -0.002	inactive: 0.025	inactive: 0.026	inactive: -0.05	inactive: -0.007	inactive: 0.013
INTS9 (UniProt Q9NV88)	inactive: -0.003	inactive: 0.011	inactive: -0.047	inactive: -0.129	inactive: -0.011	inactive: 0.003	inactive: 0.001	inactive: 0.024	inactive: -0.027	inactive: 0.078	inactive: 0.052	inactive: -0.043	inactive: -0.041	inactive: -0.018	inactive: 0.027	inactive: -0.062	inactive: -0.008	inactive: 0.027	inactive: 0.015	inactive: -0.032
KANSL3 (UniProt Q9P2N6)	inactive: -0.459	inactive: 0.003	inactive: 0.045	inactive: -0.026	inactive: 0.026	inactive: 0.065	inactive: 0.041	inactive: -0.013	inactive: 0.019	inactive: -0.012	inactive: 0.177	inactive: 0.068	inactive: -0.143	inactive: 0.018	inactive: 0.242	inactive: -0.049	inactive: -0.023	inactive: 0.008	inactive: -0.087	inactive: 0.071
IVNS1ABP (UniProt Q9Y6Y0)	inactive: 0.002	inactive: -0.059	inactive: -0.019	inactive: -0.022	inactive: 0.008	inactive: 0.005	inactive: -0.025	inactive: 0.023	inactive: 0.03	inactive: 0.041	inactive: 0.041	inactive: -0.024	inactive: 0.011	inactive: -0.048	inactive: -0.024	inactive: 0.004	inactive: -0.052	inactive: 0.069	inactive: 0.014	inactive: -0.01
ITPA (UniProt Q9BY32)	inactive: -0.018	inactive: -0.023	inactive: -0.019	inactive: -0.089	inactive: -0.005	inactive: 0.07	inactive: -0.021	inactive: 0.048	inactive: 0.045	inactive: 0.037	inactive: 0.034	inactive: -0.033	inactive: 0.009	inactive: 0.031	inactive: -0.025	inactive: -0.009	inactive: 0.003	inactive: 0.018	inactive: 0.01	inactive: 0.029
ISG15 (UniProt P05161)	inactive: 0.059	inactive: -0.024	inactive: -0.038	inactive: -0.014	inactive: 0.017	inactive: 0.034	inactive: -0.043	inactive: 0.024	inactive: -0.01	inactive: 0.007	inactive: -0.015	inactive: -0.073	inactive: -0.03	inactive: -0.013	inactive: -0.021	inactive: -0.05	inactive: -0.005	inactive: 0.026	inactive: -0.013	inactive: -0.032
KAT7 (UniProt O95251)	inactive: -0.039	inactive: -0.038	inactive: -0.072	inactive: -0.176	inactive: 0.017	inactive: 0.185	inactive: -0.007	inactive: 0.046	inactive: -0.027	inactive: 0.139	inactive: -0.01	inactive: 0.001	inactive: 0.016	inactive: -0.115	inactive: -0.064	inactive: -0.096	inactive: -0.074	inactive: 0.051	inactive: 0.053	inactive: -0.055
INTS14 (UniProt Q96SY0)	inactive: 0	inactive: 0.016	inactive: 0.005	inactive: 0.038	inactive: 0.012	inactive: -0.035	inactive: -0.011	inactive: -0.012	inactive: 0.009	inactive: -0.027	inactive: 0.024	inactive: 0.023	inactive: -0.038	inactive: -0.023	inactive: -0.004	inactive: -0.018	inactive: -0.004	inactive: -0.01	inactive: -0.026	inactive: -0.011
KBTBD2 (UniProt Q8IY47)	inactive: -0.036	inactive: -0.019	inactive: -0.073	inactive: -0.139	inactive: -0.01	inactive: 0.124	inactive: -0.056	inactive: -0.005	inactive: -0.07	inactive: 0.138	inactive: 0.014	inactive: -0.005	inactive: 0.012	inactive: 0.006	inactive: 0.028	inactive: -0.178	inactive: -0.018	inactive: 0.007	inactive: 0.009	inactive: -0.202
ITGB1 (UniProt P05556)	inactive: -0.009	inactive: -0.018	inactive: -0.002	inactive: -0.032	inactive: -0.009	inactive: 0.012	inactive: -0.005	inactive: -0.016	inactive: 0.008	inactive: 0.006	inactive: 0.029	inactive: -0.006	inactive: 0.058	inactive: -0.006	inactive: -0.04	inactive: -0.006	inactive: 0.008	inactive: -0.002	inactive: -0.009	inactive: -0.005
JPT1 (UniProt Q9UK76)	inactive: 0.016	inactive: -0.081	inactive: 0.022	inactive: 0.014	inactive: 0.06	inactive: 0.009	inactive: -0.015	inactive: -0.015	inactive: -0.018	inactive: 0.022	inactive: -0.019	inactive: 0.002	inactive: -0.013	inactive: 0.002	inactive: -0.039	inactive: 0.007	inactive: 0.045	inactive: -0.017	inactive: -0.044	inactive: 0.005
KATNA1 (UniProt O75449)	inactive: 0.023	inactive: -0.013	inactive: -0.031	inactive: 0.017	inactive: 0.043	inactive: -0.088	inactive: 0.021	inactive: -0.031	inactive: -0.065	inactive: 0.013	inactive: 0	inactive: 0.015	inactive: 0.003	inactive: -0.053	inactive: 0.016	inactive: -0.01	inactive: -0.032	inactive: 0.042	inactive: -0.001	inactive: 0.057
INTS3 (UniProt Q68E01)	inactive: -0.05	inactive: -0.005	inactive: -0.016	inactive: 0.02	inactive: -0.005	inactive: -0.104	inactive: 0.018	inactive: 0.106	inactive: -0.07	inactive: -0.052	inactive: -0.007	inactive: 0.007	inactive: -0.05	inactive: -0.045	inactive: 0.005	inactive: -0.038	inactive: 0.09	inactive: 0.028	inactive: -0.002	inactive: -0.028
KDELR2 (UniProt P33947)	inactive: -0.022	inactive: 0.003	inactive: 0.005	inactive: -0.009	inactive: 0.019	inactive: -0.084	inactive: -0.062	inactive: -0.071	inactive: -0.038	inactive: 0.137	inactive: 0.014	inactive: 0.023	inactive: 0	inactive: 0.011	inactive: -0.04	inactive: -0.094	inactive: -0.112	inactive: -0.025	inactive: 0.009	inactive: -0.002
ITCH (UniProt Q96J02)	inactive: -0.021	inactive: -0.018	inactive: 0.03	inactive: -0.055	inactive: 0.005	inactive: 0.007	inactive: 0.041	inactive: -0.044	inactive: -0.022	inactive: 0.034	inactive: 0.028	inactive: 0.017	inactive: -0.058	inactive: -0.012	inactive: -0.011	inactive: -0.052	inactive: -0.006	inactive: 0.05	inactive: 0.007	inactive: 0.038
IPO11 isoform 2 (UniProt Q9UI26)	inactive: -0.019	inactive: 0	inactive: -0.05	inactive: -0.002	inactive: -0.002	inactive: -0.022	inactive: -0.004	inactive: 0.041	inactive: -0.058	inactive: 0	inactive: 0.005	inactive: 0.02	inactive: -0.016	inactive: -0.004	inactive: 0.011	inactive: -0.04	inactive: -0.024	inactive: 0.015	inactive: 0.011	inactive: -0.029

Given in markdown: part of the list above

| Target | log2 fold change (lapatinib) | log2 fold change (pictilisib) | log2 fold change (crizotinib) | log2 fold change [1] | log2 fold change (duvelisib) | log2 fold change (gandotinib) | log2 fold change (tozasertib) | log2 fold change (doramapimod) | log2 fold change (bafetinib) | log2 fold change [2] | log2 fold change (nilotinib) | log2 fold change [3] | log2 fold change (dasatinib) | log2 fold change [4] | log2 fold change [5] | log2 fold change (quisinostat) | log2 fold change (tipifarnib) | log2 fold change [6] | log2 fold change [7] | log2 fold change [8] |
| --- | --- | --- | --- | --- | --- | --- | --- | --- | --- | --- | --- | --- | --- | --- | --- | --- | --- | --- | --- | --- |
| INTS9 (UniProt Q9NV88) | inactive: -0.003 | inactive: 0.011 | inactive: -0.047 | inactive: -0.129 | inactive: -0.011 | inactive: 0.003 | inactive: 0.001 | inactive: 0.024 | inactive: -0.027 | inactive: 0.078 | inactive: 0.052 | inactive: -0.043 | inactive: -0.041 | inactive: -0.018 | inactive: 0.027 | inactive: -0.062 | inactive: -0.008 | inactive: 0.027 | inactive: 0.015 | inactive: -0.032 |
| KAT7 (UniProt O95251) | inactive: -0.039 | inactive: -0.038 | inactive: -0.072 | inactive: -0.176 | inactive: 0.017 | inactive: 0.185 | inactive: -0.007 | inactive: 0.046 | inactive: -0.027 | inactive: 0.139 | inactive: -0.01 | inactive: 0.001 | inactive: 0.016 | inactive: -0.115 | inactive: -0.064 | inactive: -0.096 | inactive: -0.074 | inactive: 0.051 | inactive: 0.053 | inactive: -0.055 |
| INTS14 (UniProt Q96SY0) | inactive: 0 | inactive: 0.016 | inactive: 0.005 | inactive: 0.038 | inactive: 0.012 | inactive: -0.035 | inactive: -0.011 | inactive: -0.012 | inactive: 0.009 | inactive: -0.027 | inactive: 0.024 | inactive: 0.023 | inactive: -0.038 | inactive: -0.023 | inactive: -0.004 | inactive: -0.018 | inactive: -0.004 | inactive: -0.01 | inactive: -0.026 | inactive: -0.011 |

— the supplement of paper PMC10849652
